Data reported in PMC9687537.
No constants are given. Whether binding was seen depends on the method and setting. Binding seen in cells or lysates may run through a third protein. Here binding means that the protein was enriched with, or labelled near, the bait; the list need not be complete. A no says only that the protein was not detected with the bait. Tags and fused reporters may be left off the sequences shown. Blank lines part the entries; values can stand above or below the binder they belong to.

Molecular target: T1, GFP–WDR34-WT (human), Q96EX3
T1 chain: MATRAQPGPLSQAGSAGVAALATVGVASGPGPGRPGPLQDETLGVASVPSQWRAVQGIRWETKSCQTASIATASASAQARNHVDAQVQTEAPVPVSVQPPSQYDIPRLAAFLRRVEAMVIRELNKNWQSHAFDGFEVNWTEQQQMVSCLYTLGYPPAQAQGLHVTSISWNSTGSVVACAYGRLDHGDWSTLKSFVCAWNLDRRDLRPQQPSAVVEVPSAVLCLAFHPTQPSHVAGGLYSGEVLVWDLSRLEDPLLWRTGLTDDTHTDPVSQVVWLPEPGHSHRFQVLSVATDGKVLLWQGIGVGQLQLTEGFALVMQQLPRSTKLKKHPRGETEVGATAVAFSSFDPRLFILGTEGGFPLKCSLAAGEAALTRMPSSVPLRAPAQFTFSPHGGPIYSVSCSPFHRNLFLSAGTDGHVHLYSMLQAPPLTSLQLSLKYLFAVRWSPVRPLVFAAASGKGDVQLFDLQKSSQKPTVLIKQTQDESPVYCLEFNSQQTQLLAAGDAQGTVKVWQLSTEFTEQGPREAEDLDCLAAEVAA
Assay: affinity purification with mass spectrometry; GFP-Trap beads on clarified lysates of RPE1 WDR34 KO cells stably expressing GFP proteins, serum-starved 24 h; cells cross-linked with 1 mM DSP before lysis; 16-plex TMT labelling; abundances normalised to WDR34 (GFP only: to GFP) and compared with GFP–WDR34-WT; three independent experiments (PXD032758)
Settings: remark: other sources report otherwise

- binding: no binding
B1: DYNLT3, P51808 1-116 (protein)
chain: MEEYHRHCDEVGFNAEEAHNIVKECVDGVLGGEDYNHNNINQWTASIVEQSLTHLVKLGKAYKYIVTCAVVQKSAYGFHTASSCFWDTTSDGTCTVRWENRTMNCIVNVFAIAIVL

- binding: no binding
B2: DYNLRB2, Q8TF09 1-96 (protein)
chain: MAEVEETLKRIQSHKGVIGTMVVNAEGIPIRTTLDNSTTVQYAGLLHHLTMKAKSTVRDIDPQNDLTFLRIRSKKHEIMVAPDKEYLLIVIQNPCE
